Test system: HLA molecules of primary tumor and normal tissue samples (cancer entities)
Test: Identification and label-free LC-MS quantitation of HLA-presented tumor-associated peptides on tissue samples
Set-up: species or system human
Details: cancer entities on whose tumor tissue samples the HLA-presented peptide was found (LC-MS); abbreviations in the footnotes of Table 8a

Substance	Peptide Presentation on cancer entities
127 (FLPRAYYRW; listed as Homo sapiens) [compound 127]	PRCA
129 (IYVSLAHVL; listed as Homo sapiens) [compound 129]	GC, NSCLCother, NSCLCsquam, PRCA
130 (RPEKVFVF; listed as Homo sapiens) [compound 130]	NSCLCadeno
131 (MHRTWRETF; listed as Homo sapiens) [compound 131]	PRCA
132 (TFEGATVTL; listed as Homo sapiens) [compound 132]	CRC, MEL, NHL
134 (IYSSQLPSF; listed as Homo sapiens) [compound 134]	CLL
135 (KYKQHFPEI; listed as Homo sapiens) [compound 135]	HCC
136 (YLKSVQLF; listed as Homo sapiens) [compound 136]	NSCLCsquam
139 (AYAPRGSIYKF; listed as Homo sapiens) [compound 139]	GBC, NSCLCadeno
140 (IFQHFCEEI; listed as Homo sapiens) [compound 140]	CLL
141 (QYAAAITNGL; listed as Homo sapiens) [compound 141]	NSCLCsquam
143 (KTKRWLWDF; listed as Homo sapiens) [compound 143]	NSCLCadeno, NSCLCsquam
144 (LFDHGGTVFF; listed as Homo sapiens) [compound 144]	GBM
146 (NYFLDPVTI; listed as Homo sapiens) [compound 146]	BRCA, MEL, NSCLCadeno, NSCLCsquam, OC
149 (TQFFIPYTI; listed as Homo sapiens) [compound 149]	CCC, GC, NSCLCsquam, OC
151 (RRLWAYVTI; listed as Homo sapiens) [compound 151]	MEL
154 (DYSKQALSL; listed as Homo sapiens) [compound 154]	NSCLCadeno
158 (SYLKDPMIV; listed as Homo sapiens) [compound 158]	CLL
159 (VFQPNPLF; listed as Homo sapiens) [compound 159]	UEC
160 (YIANLISCF; listed as Homo sapiens) [compound 160]	GBC
161 (ILQAPLSVF; listed as Homo sapiens) [compound 161]	CLL, GC, MEL, NSCLCadeno, NSCLCother, NSCLCsquam, OSCAR, PACA, RCC, SCLC
162 (YYIGIVEEY; listed as Homo sapiens) [compound 162]	HCC, NSCLCsquam
164 (MFQEMLQRL; listed as Homo sapiens) [compound 164]	MEL
166 (MMALWSLLHL; listed as Homo sapiens) [compound 166]	NSCLCsquam
167 (LQPPWTTVF; listed as Homo sapiens) [compound 167]	GC, MEL, NSCLCadeno, NSCLCsquam
168 (LSSPVHLDF; listed as Homo sapiens) [compound 168]	CRC, HCC, NHL, NSCLCadeno, OSCAR, RCC, UEC

Substance	Peptide Presentation on cancer entities
169 (MYDLHHLYL; listed as Homo sapiens) [compound 169]	NSCLCsquam
170 (IFIPATILL; listed as Homo sapiens) [compound 170]	HCC
171 (LYTVPFNLI; listed as Homo sapiens) [compound 171]	NSCLCsquam
172 (RYFIAAEKILW; listed as Homo sapiens) [compound 172]	HNSCC
173 (RYLSVCERL; listed as Homo sapiens) [compound 173]	NSCLCsquam
174 (TYGEEMPEEI; listed as Homo sapiens) [compound 174]	PRCA
175 (SYFEYRRLL; listed as Homo sapiens) [compound 175]	NSCLCadeno
177 (KYLITTFSL; listed as Homo sapiens) [compound 177]	NSCLCadeno
179 (MYNMVPFF; listed as Homo sapiens) [compound 179]	NSCLCadeno
180 (IYNKTKMAF; listed as Homo sapiens) [compound 180]	SCLC
182 (AQGSGTVTF; listed as Homo sapiens) [compound 182]	CLL
184 (VYVRPRVF; listed as Homo sapiens) [compound 184]	NSCLCadeno
186 (RRVTWNVLF; listed as Homo sapiens) [compound 186]	NSCLCsquam
188 (SLPGSFIYVF; listed as Homo sapiens) [compound 188]	NSCLCadeno, RCC
189 (FYPDEDDFYF; listed as Homo sapiens) [compound 189]	NSCLCother
191 (MSYSCGLPSL; listed as Homo sapiens) [compound 191]	GC, HCC
192 (CYSFIHLSF; listed as Homo sapiens) [compound 192]	HCC, NHL
193 (KYKPVALQCIA; listed as Homo sapiens) [compound 193]	NSCLCadeno
194 (EYFLPSLEII; listed as Homo sapiens) [compound 194]	CLL
195 (IYNEHGIQQI; listed as Homo sapiens) [compound 195]	GBM, NSCLCadeno, NSCLCsquam
197 (YYHSGENLY; listed as Homo sapiens) [compound 197]	GC, NSCLCadeno
198 (VLAPVSGQF; listed as Homo sapiens) [compound 198]	CLL, GBC, GC, MEL, NHL, NSOLCadeno, NSCLCsquam, SCLC
199 (MFQFEHIKW; listed as Homo sapiens) [compound 199]	NSCLCadeno
200 (LYMSVEDFI; listed as Homo sapiens) [compound 200]	NSCLCother
205 (ISWEVVHTVF; listed as Homo sapiens) [compound 205]	PACA
206 (EVVHTVFLF; listed as Homo sapiens) [compound 206]	GBC, MEL, NSCLCadeno, NSCLCsquam, PRCA, SCLC

Substance	Peptide Presentation on cancer entities
207 (IYKFIMDRF; listed as Homo sapiens) [compound 207]	AML, GBC, GC, HCC, NSCLCadeno, NSCLCother, NSCLCsquam, OSCAR, PRCA, UBC
208 (QYLQQQAKL; listed as Homo sapiens) [compound 208]	NSCLCadeno
209 (DIYVTGGHLF; listed as Homo sapiens) [compound 209]	PRCA
210 (EAYSYPPATI; listed as Homo sapiens) [compound 210]	NSCLCadeno, NSCLCsquam
212 (VYFVQYKIM; listed as Homo sapiens) [compound 212]	UBC
213 (FYNRLTKLF; listed as Homo sapiens) [compound 213]	NSCLCadeno
217 (QRYGFSSVGF; listed as Homo sapiens) [compound 217]	HCC
218 (FYFYNCSSL; listed as Homo sapiens) [compound 218]	UEC
222 (HYHAESFLF; listed as Homo sapiens) [compound 222]	OSCAR
224 (AYLQFLSVL; listed as Homo sapiens) [compound 224]	NSCLCother
228 (VYLRIGGF; listed as Homo sapiens) [compound 228]	MEL, NSCLCadeno, NSCLCsquam, OSCAR, PRCA, RCC, SCLC, UBC
229 (CAMPVAMEF; listed as Homo sapiens) [compound 229]	NHL
230 (RWLSKPSLL; listed as Homo sapiens) [compound 230]	NHL
234 (RYKMLIPF; listed as Homo sapiens) [compound 234]	PRCA
235 (VYISDVSVY; listed as Homo sapiens) [compound 235]	NSCLCadeno
237 (RQGLTVLTW; listed as Homo sapiens) [compound 237]	NSCLCadeno
238 (YTCSRAVSLF; listed as Homo sapiens) [compound 238]	NSCLCadeno
242 (SYTPLLSYI; listed as Homo sapiens) [compound 242]	MEL
243 (ALFPMGPLTF; listed as Homo sapiens) [compound 243]	CLL
244 (TYIDTRTVFL; listed as Homo sapiens) [compound 244]	HCC
245 (VLPLHFLPF; listed as Homo sapiens) [compound 245]	RCC
248 (CWGPHCFEM; listed as Homo sapiens) [compound 248]	NSCLCsquam
250 (VYSDRQIYLL; listed as Homo sapiens) [compound 250]	HCC
253 (QYYCLLLIF; listed as Homo sapiens) [compound 253]	NSCLCadeno, NSCLCsquam
254 (KQHAWLPLTI; listed as Homo sapiens) [compound 254]	NHL
